Measurements published in publication PMC6457497, “The H3K27me3 demethylase REF6 promotes leaf senescence through directly activating major senescence regulatory and functional genes in Arabidopsis”.

Target: T1, GST-REF6C (C2H2 ZnF domain) (Arabidopsis thaliana) (UniProt Q9STM3)
T1 sequence (looked up): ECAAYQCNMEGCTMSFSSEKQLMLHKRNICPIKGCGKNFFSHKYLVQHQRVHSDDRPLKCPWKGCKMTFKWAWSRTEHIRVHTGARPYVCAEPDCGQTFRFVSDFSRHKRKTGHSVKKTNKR
Assay: EMSA
Details: Light Shift EMSA kit binding buffer (composition, salt, pH not stated), poly(dI-dC), 4 ug protein in 20 ul, room temperature 30 min; recombinant protein; residues 1239-1360; protein details: N-terminal GST; label: biotin

“AAAGGAGTCTAAAAAAAATTAGTGGCGT / ACGCCACTAAATTTTTTTTTACTCCTTT [NYE1 mutant probe]”: no binding.
“CAAAAAGGGTAAAAAAAATTAGTTATTA / TAATAACTAAATTTTTTTCCCTTTTTG [NYE2 mutant probe]”: no binding.

The exact form of at least one protein or probe is not confirmed. A negative result means that nothing was seen under these conditions. At least one verdict rests on a figure or table, not on a statement of the authors. Where a protein sequence is shown, tags need not be part of it.
